Assay results taken from the supplement of paper PMC3334620.
In all, about 33,000 sequences were measured (“E-score (-0.5 to 0.5)”: median about -0.015, highest 2% from about 0.3 on). This is one part of the list.

Target: T1, Abf1 (UniProt P14164)
T1 sequence: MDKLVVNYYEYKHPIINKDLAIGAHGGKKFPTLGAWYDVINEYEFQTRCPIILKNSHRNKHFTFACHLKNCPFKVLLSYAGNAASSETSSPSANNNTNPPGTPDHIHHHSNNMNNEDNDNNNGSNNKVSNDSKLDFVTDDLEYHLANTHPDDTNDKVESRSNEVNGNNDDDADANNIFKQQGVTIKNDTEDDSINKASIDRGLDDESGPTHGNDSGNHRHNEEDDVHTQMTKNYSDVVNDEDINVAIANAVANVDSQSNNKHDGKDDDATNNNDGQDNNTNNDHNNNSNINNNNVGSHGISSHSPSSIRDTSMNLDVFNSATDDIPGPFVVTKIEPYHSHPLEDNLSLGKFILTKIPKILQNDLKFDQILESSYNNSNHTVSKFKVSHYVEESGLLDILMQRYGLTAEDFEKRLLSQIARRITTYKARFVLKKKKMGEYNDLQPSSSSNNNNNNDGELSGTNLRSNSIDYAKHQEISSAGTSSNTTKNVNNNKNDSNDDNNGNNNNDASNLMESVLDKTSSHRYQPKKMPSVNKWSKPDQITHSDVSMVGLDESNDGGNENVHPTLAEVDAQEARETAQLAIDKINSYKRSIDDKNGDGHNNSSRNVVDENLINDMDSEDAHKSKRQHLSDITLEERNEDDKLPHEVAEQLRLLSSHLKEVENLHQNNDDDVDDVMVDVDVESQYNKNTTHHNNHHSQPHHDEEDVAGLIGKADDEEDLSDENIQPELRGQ
Experiment: PBM E-score (8-mer binding enrichment) (E-score (-0.5 to 0.5)); higher = stronger / more preferred TF binding
Details: protein concentration: 200 nM; construct: GST-full length
Method: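 Universal 'all 10-mer' protein binding microarrays (Agilent AMADID 015681) probed with GST-tagged S. cerevisiae TFs (full-length or DBD) made by in vitro transcription/translation (PURExpress), about 100-200 nM. Bound TF was detected with fluorescent anti-GST. Each ungapped 8-mer (which stands for itself and its reverse complement) is scored by the PBM enrichment score (E-score), a modified Wilcoxon-Mann-Whitney statistic from -0.5 to +0.5, computed with the Universal PBM Analysis Suite. Scale: above 0.35 generally sequence-specific binding.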

| Sequence | PBM E-score |
| --- | --- |
| GAGATCCC | 0.0352 |
| AGGCCGCC | -0.174 |
| CGTTAAGA | 0.248 |
| CTCACAAC | 0.00328 |
| ATCCTCGA | 0.105 |
| TAATCGGA | 0.0729 |
| TGTGGTAA | 0.0219 |
| AGTCACAT | 0.0571 |
| ATGGTCAC | 0.141 |
| AACCGGAC | -0.154 |
| CGCGAGAG | -0.105 |
| ACGGAAAA | 0.187 |
| CCACAGAG | -0.0437 |
| CCAAAACA | -0.0686 |
| TCTATGAA | 0.0829 |
| ATCCCAGA | -0.198 |
| GGCTGCAA | -0.111 |
| ACCTGCCA | -0.0113 |
| TGCTTCAA | -0.055 |
| ACATTCCA | -0.0289 |
| TAAAACGA | 0.159 |
| CAATGTAA | 0.0165 |
| AATAGAGT | -0.111 |
| CAAGTGAG | 0.0165 |
| ACAACCAG | -0.0761 |

| Sequence | PBM E-score |
| --- | --- |
| ATGTACCC | -0.113 |
| TCATGACA | 0.323 |
| CCTGAAGA | -0.0909 |
| GAACGACC | -0.0103 |
| ATTAATCA | 0.257 |
| AGCAGGGA | 0.0538 |
| AAAACCGA | 0.0815 |
| AATCGAGG | -0.107 |
| AATGTCTG | 0.0426 |
| CGCGATGA | 0.174 |
| CTCCACAG | -0.222 |
| TCCCGTCA | 0.0971 |
| CCCATCCC | -0.282 |
| CAGCAGAA | -0.0959 |
| GCGTCGAA | 0.0222 |
| CCTGCGAA | 0.0529 |
| CTAACTAG | 0.0528 |
| ATGGCAAA | -0.0363 |
| AACATGAG | -0.0788 |
| CTACACGA | 0.247 |
| AAACATCC | 0.0303 |
| AGGCACAT | -0.0983 |
| CACACACA | -0.0651 |
| CGCATGAA | -0.0897 |
| AGAAGAAC | 0.0449 |

| Sequence | PBM E-score |
| --- | --- |
| AATGTATC | 0.241 |
| AAGGCGAC | -0.174 |
| CGTTGTGC | 0.0413 |
| CTATCGGC | -0.283 |
| CACACTCG | 0.139 |
| CAGCTGAC | -0.0631 |
| ACGGCAGT | 0.25 |
| ATCCACAA | -0.138 |
| CACGTCGC | 0.16 |
| GCAGGAGC | -0.0996 |
| GAGATATA | 0.147 |
| ATTCCTTC | -0.0137 |
| GGAAACAA | -0.0829 |
| AATACGGC | 0.32 |
| AGTTGTGA | 0.168 |
| ACGAATAC | 0.201 |
| CCAAACAA | 0.0866 |
| ACACCATG | -0.024 |
| GATCAGAC | -0.109 |
| AAGCCTCG | 0.0393 |
| CCTTGTAA | 0.0623 |
| CCGCCCGC | -0.217 |
| ATTATTGC | 0.0704 |
| CCCGGCTC | -0.259 |
| CGAGCGTC | -0.171 |

| Sequence | PBM E-score |
| --- | --- |
| CCTTCGAA | -0.221 |
| AGACTCTA | -0.143 |
| AACAATCC | -0.00262 |
| CAATCAAA | 0.156 |
| CCCCTGTA | -0.0606 |
| CGGCTGTC | -0.181 |
| ACACTAAT | 0.0747 |
| TAGATTAA | 0.19 |
| ATTATAAT | 0.214 |
| CTTGTGGC | -0.105 |
| GGGTCTTA | -0.183 |
| CACGGCAC | 0.214 |
| ACAATCAG | -0.0246 |
| CACTTAAC | 0.0152 |
| ACCTCCGT | 0.102 |
| GTACGTTA | 0.229 |
| CCAGAAAC | -0.138 |
| CTTATACC | 0.0796 |
| AGTCTAAA | -0.0752 |
| ACGCCAGT | -0.217 |
| ACCAACTC | 0.00329 |
| GTTTCGTA | 0.26 |
| CTTCCGAC | 0.0551 |
| GGGGCCCC | -0.196 |
| AAGTTGCA | -0.12 |

Look-ups from the list.
For PBM E-score, ATCCACAA reads -0.138
For PBM E-score, CCTTCGAA reads -0.221
For PBM E-score, CACGTCGC reads 0.16
For PBM E-score, CTACACGA reads 0.247

Later entries.

| Sequence | PBM E-score |
| --- | --- |
| GAAGCAAA | -0.0207 |
| AAGCGGCA | 0.00937 |
| AACCCAAG | -0.0477 |
| CAGTAGGC | -0.0385 |
| AGTACGAT | 0.106 |
| CGGGGCGA | 0.0363 |
| CTCGAGAC | 0.234 |
| ATCAACTC | 0.0915 |
| TGTACGAA | 0.427 |
| CCGCGCGA | 0.0788 |
| GTTATATA | 0.0142 |
| CTTCCCCA | -0.189 |
| AGAATGGA | 0.101 |
| CCAATTTA | 0.196 |
| AGCCTGCA | 0.0184 |
| CTATATAG | -0.0885 |
| ATTGCCGA | -0.0295 |
| AACGCCTC | -0.28 |
| CCAGTAAC | -0.135 |
| GGTGTACA | -0.178 |
| CTAAAGTA | -0.0113 |
| CAGGGGCG | -0.36 |
| ATCGCAAG | -0.137 |
| ACCCGTAG | -0.248 |
| ACAACCTC | 0.0346 |

| Sequence | PBM E-score |
| --- | --- |
| CGCTTATC | 0.0331 |
| GCGTGTGA | -0.00541 |
| TTCATGAA | 0.0994 |
| AACGACCT | 0.114 |
| CTGTGTGA | -0.165 |
| CATTGCGG | -0.094 |
| CGCTACCG | -0.057 |
| GGTCTCTA | -0.0248 |
| AGCATAGC | -0.149 |
| GGAGTAAC | -0.179 |
| AGCGATCA | 0.158 |
| CAGCGCGA | -0.135 |
| TGCCGGCA | -0.0454 |
| CATGGGGG | -0.347 |
| GCATCCCA | -0.239 |
| GGTTGGTA | 0.0354 |
| AAAGCAGG | 0.134 |
| CAGCTCTA | -0.15 |
| CTATGATA | 0.143 |
| GCCCCGAA | -0.0285 |
| ACTTCTTA | 0.194 |
| TACTGAGA | -0.151 |
| GTGCAGGA | -0.144 |
| AAGTTCCG | -0.0595 |
| AAACGGGA | 0.0928 |

| Sequence | PBM E-score |
| --- | --- |
| AAGCTCCT | -0.111 |
| AAAAATCG | -0.0187 |
| GGGGGGCA | -0.259 |
| GGCCGTTA | 0.0827 |
| ACCCCAGT | -0.145 |
| AGATGATG | 0.216 |
| CAGGTAGA | -0.217 |
| CTTCCATA | -0.143 |
| CAGGAAGG | -0.2 |
| GTCGTTTA | 0.298 |
| CAGTCTAA | -0.0633 |
| TCGGTAGA | -0.00211 |
| GGCTAGCC | -0.126 |
| AGTTAACG | 0.155 |
| ACGGGCTG | 0.0917 |
| TGACCCCA | -0.063 |
| AGAGGGAG | -0.218 |
| AAAATCTT | -0.0471 |
| CTTAGCTC | -0.286 |
| GGGCATTA | -0.102 |
| AATTACCT | 0.0245 |
| CCTTCCAC | -0.249 |
| GCTCACTA | 0.0163 |
| CTTAGACC | -0.0387 |
| ACCGGCAC | 0.0421 |

| Sequence | PBM E-score |
| --- | --- |
| ACAGTGAG | -0.0226 |
| ATGGTAGC | -0.106 |
| GACGAACC | 0.141 |
| ACTTGTAC | 0.16 |
| CCTCTTCC | -0.286 |
| CCAGCGCA | -0.209 |
| AAGGTACC | -0.142 |
| GTTACAAA | 0.183 |
| TACCCTCA | -0.182 |
| GCCCAGTA | -0.0754 |
| AGGGGCTC | -0.266 |
| CGCGGTTC | -0.0224 |
| TAAGCGTA | -0.184 |
| GAGGCACA | -0.278 |
| AGGAGGCG | -0.293 |
| CTGTCATA | 0.12 |
| ACCGGTCG | -0.0575 |
| CGAGAAGC | 0.0598 |
| CCCATCAC | -0.112 |
| CCCTGATC | -0.249 |
| ATCACAGC | 0.154 |
| AATGGGCC | -0.318 |
| ACAGAACA | -0.0959 |
| ACTCCGCA | -0.0785 |
| CCTGCTAC | 0.0024 |

Quoted at random: 5 records from the list

| Sequence | PBM E-score |
| --- | --- |
| CGAGAAGC | 0.0598 |
| CCTCTTCC | -0.286 |
| GACGAACC | 0.141 |
| TAAGCGTA | -0.184 |
| TACCCTCA | -0.182 |

(listing goes on)

| Sequence | PBM E-score |
| --- | --- |
| CCATGGCA | -0.154 |
| TAGGCGCA | 0.0489 |
| GAAACAGC | -0.121 |
| CCGCTAAC | -0.103 |
| CACAATCG | -0.00722 |
| GCGGAGTA | -0.11 |
| ACCCGGGA | -0.0314 |
| GTCAGAAC | 0.0557 |
| CAATATCA | 0.283 |
| CAGCGGAA | -0.144 |
| AGGTTACT | 0.024 |
| CACCCCGG | -0.121 |
| GAAGACGC | -0.0994 |
| AATCACAC | 0.0654 |
| GGAGTTAC | 0.13 |
| GACGATTA | 0.31 |
| CCGACCCG | -0.128 |
| CAAATGTA | 0.214 |
| CCGGGTGC | -0.176 |
